Assay [1] deals with T1, WHITE COLLAR 2 (WC-2) (Neurospora (endogenous in Neurospora extracts)) (UniProt P78714).
T1 sequence: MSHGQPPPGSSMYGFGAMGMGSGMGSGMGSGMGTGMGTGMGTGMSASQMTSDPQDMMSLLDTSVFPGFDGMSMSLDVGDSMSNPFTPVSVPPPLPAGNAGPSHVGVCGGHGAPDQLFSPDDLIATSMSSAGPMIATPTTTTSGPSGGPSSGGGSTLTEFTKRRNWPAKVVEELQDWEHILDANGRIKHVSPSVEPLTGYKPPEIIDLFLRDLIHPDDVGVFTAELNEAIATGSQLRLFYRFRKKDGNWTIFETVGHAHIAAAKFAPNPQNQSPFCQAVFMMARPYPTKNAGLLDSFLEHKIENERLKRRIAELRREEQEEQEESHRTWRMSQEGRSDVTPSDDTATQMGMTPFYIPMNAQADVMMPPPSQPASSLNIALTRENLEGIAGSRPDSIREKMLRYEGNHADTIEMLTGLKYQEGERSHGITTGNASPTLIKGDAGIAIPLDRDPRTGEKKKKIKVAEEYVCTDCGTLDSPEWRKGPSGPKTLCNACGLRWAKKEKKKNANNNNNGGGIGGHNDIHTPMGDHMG
The experiment in a line: co-IP; WC-2 antibody and GammaBind G Sepharose beads, 2 mg Neurospora extract (50 mM HEPES pH 7.4, 137 mM NaCl, 10% glycerol); WC-2 precipitated, FRQ detected by Western blot; cultures in LL, for the wild type also at time points in DD. On the technique in general: Immunoblotting shows a protein as a band on a membrane.

The target of assay [2] is CK1a (casein kinase 1a), endogenous (Neurospora (endogenous in Neurospora extracts)). The experiment in a line: co-IP; CK1a antibody (endogenous CK1a) and GammaBind G Sepharose beads, 2 mg Neurospora extract (50 mM HEPES pH 7.4, 137 mM NaCl, 10% glycerol); FRQ detected by Western blot; cultures in LL.
In assay [3] the target is Myc.His.CK1a (Neurospora). Description: co-IP; c-Myc antibody and GammaBind G Sepharose beads, 2 mg extract of Neurospora strains that express Myc.His.CK1a; FRQ detected by Western blot; cultures in LL; for the wild type also DD time points, 1 h CHX treatment and the ckb^RIP background.

Results are given in words; binding and its absence hold for the method and conditions named. Binding seen in cells or lysates may run through a third protein. Binding can be weak; no strength is given.

Take “FRQ M10 (phosphorylation site mutant) (from UniProt P19970)”: in assay [1], the binding entry is reported as “binds”.

For “FRQ M9 (phosphorylation site mutant) (from UniProt P19970)”, the binding result in assay [1] is “binds”.

B1: FREQUENCY (FRQ), wild type (protein, UniProt P19970 1-989)
chain: MADSGDKSQGMRPPPFDSRGHPLPRRASPDKSITLENHRLARDTSSRVTSSSALGVTESQPQLKSSPTRRNSSGESEPTNWFNQSNRNPAAAFHDESHIMEVDPPFYQKETDSSNEESRYPPGRNPVHPPGGVQLPGFRPVAAHSSAADDYRSVIDDLTVENKRLKEELKRYKQFGSDVMRKEKLFEIKVHGLPRRKKRELEATLRDFAASLGDSSESTSQRRKTGRHGTAVHSSGVSLSKHDSSSSSRSRPVDSAYNSMSTGRSSHAPHSSGPSLGRPSLTRAKSVGTQKVENYLRDTPDGLLPHHIVMTDKEKKKLVVRRLEQLFTGKISGRNMQRNQSMPSMDAPLAPEGTNMAPPRPPPEGLREACIQLQDGDNPRKNRSSKDNGSASNSGGDQTELGGTGTGSGDGSGSGGRTGNNTSPPGAIAPDQRPTRPRDLDPDRVQIPSENMDYIRHLGLVSPEFLQGSRTSYQDVAPDAEGWVYLNLLCNLAQLHMVNVTPSFIRQAVSEKSTKFQLSADGRKIRWRGGTDGTKFSSDSSEDKSQQSPMTEDTEDGSDKNGRRKKRKTQQASSEIGRFGPSRSPSDTFHYKPMFVHRNSSSIETSLEESMSQGSEDAVDESNMGNSKWDFSGSGTTQQRRKRRYDGAIVYYTGAPFCTDLSGDPGDMSPTAQMTAGREVEGSGSGDEVEHVLQRTLSGSSLPIRPLSDDRARVAEVLDFDPGNPPELVADDGSSPNDEDFVFPWCEDPAKVRIQPIAKEVMEPSGLGGVLPDDHFVMLVTTRRVVRPILQRQLSRSTTSEDTAEFIAERLAAIRTSSPLPPRSHRLTVAPLQVEYVSGQFRRLNPAPLPPPAIFYPPFSTDSSWDDGDDLASDDEEVEEVEEDSYSEGQISRRANPHFSDNNTYMRKDDLAFDTETDVRMDSDDNRLSDSGHNMRAMMPRAEAVDGDDSPLAAVTGKEVDMLHTGSSVATAGGAESGYSSSMEDVSSS
For B1, the binding result in assay [2] and in assay [3] was “binds” in each case.

B2: FRQ S519A (protein, UniProt P19970 1-989)
chain: MADSGDKSQGMRPPPFDSRGHPLPRRASPDKSITLENHRLARDTSSRVTSSSALGVTESQPQLKSSPTRRNSSGESEPTNWFNQSNRNPAAAFHDESHIMEVDPPFYQKETDSSNEESRYPPGRNPVHPPGGVQLPGFRPVAAHSSAADDYRSVIDDLTVENKRLKEELKRYKQFGSDVMRKEKLFEIKVHGLPRRKKRELEATLRDFAASLGDSSESTSQRRKTGRHGTAVHSSGVSLSKHDSSSSSRSRPVDSAYNSMSTGRSSHAPHSSGPSLGRPSLTRAKSVGTQKVENYLRDTPDGLLPHHIVMTDKEKKKLVVRRLEQLFTGKISGRNMQRNQSMPSMDAPLAPEGTNMAPPRPPPEGLREACIQLQDGDNPRKNRSSKDNGSASNSGGDQTELGGTGTGSGDGSGSGGRTGNNTSPPGAIAPDQRPTRPRDLDPDRVQIPSENMDYIRHLGLVSPEFLQGSRTSYQDVAPDAEGWVYLNLLCNLAQLHMVNVTPSFIRQAVSEKSTKFQLAADGRKIRWRGGTDGTKFSSDSSEDKSQQSPMTEDTEDGSDKNGRRKKRKTQQASSEIGRFGPSRSPSDTFHYKPMFVHRNSSSIETSLEESMSQGSEDAVDESNMGNSKWDFSGSGTTQQRRKRRYDGAIVYYTGAPFCTDLSGDPGDMSPTAQMTAGREVEGSGSGDEVEHVLQRTLSGSSLPIRPLSDDRARVAEVLDFDPGNPPELVADDGSSPNDEDFVFPWCEDPAKVRIQPIAKEVMEPSGLGGVLPDDHFVMLVTTRRVVRPILQRQLSRSTTSEDTAEFIAERLAAIRTSSPLPPRSHRLTVAPLQVEYVSGQFRRLNPAPLPPPAIFYPPFSTDSSWDDGDDLASDDEEVEEVEEDSYSEGQISRRANPHFSDNNTYMRKDDLAFDTETDVRMDSDDNRLSDSGHNMRAMMPRAEAVDGDDSPLAAVTGKEVDMLHTGSSVATAGGAESGYSSSMEDVSSS
With B2, the binding entry in assay [3] is “binds”.

B3: FRQ S513R (protein, UniProt P19970 1-989)
chain: MADSGDKSQGMRPPPFDSRGHPLPRRASPDKSITLENHRLARDTSSRVTSSSALGVTESQPQLKSSPTRRNSSGESEPTNWFNQSNRNPAAAFHDESHIMEVDPPFYQKETDSSNEESRYPPGRNPVHPPGGVQLPGFRPVAAHSSAADDYRSVIDDLTVENKRLKEELKRYKQFGSDVMRKEKLFEIKVHGLPRRKKRELEATLRDFAASLGDSSESTSQRRKTGRHGTAVHSSGVSLSKHDSSSSSRSRPVDSAYNSMSTGRSSHAPHSSGPSLGRPSLTRAKSVGTQKVENYLRDTPDGLLPHHIVMTDKEKKKLVVRRLEQLFTGKISGRNMQRNQSMPSMDAPLAPEGTNMAPPRPPPEGLREACIQLQDGDNPRKNRSSKDNGSASNSGGDQTELGGTGTGSGDGSGSGGRTGNNTSPPGAIAPDQRPTRPRDLDPDRVQIPSENMDYIRHLGLVSPEFLQGSRTSYQDVAPDAEGWVYLNLLCNLAQLHMVNVTPSFIRQAVSEKRTKFQLSADGRKIRWRGGTDGTKFSSDSSEDKSQQSPMTEDTEDGSDKNGRRKKRKTQQASSEIGRFGPSRSPSDTFHYKPMFVHRNSSSIETSLEESMSQGSEDAVDESNMGNSKWDFSGSGTTQQRRKRRYDGAIVYYTGAPFCTDLSGDPGDMSPTAQMTAGREVEGSGSGDEVEHVLQRTLSGSSLPIRPLSDDRARVAEVLDFDPGNPPELVADDGSSPNDEDFVFPWCEDPAKVRIQPIAKEVMEPSGLGGVLPDDHFVMLVTTRRVVRPILQRQLSRSTTSEDTAEFIAERLAAIRTSSPLPPRSHRLTVAPLQVEYVSGQFRRLNPAPLPPPAIFYPPFSTDSSWDDGDDLASDDEEVEEVEEDSYSEGQISRRANPHFSDNNTYMRKDDLAFDTETDVRMDSDDNRLSDSGHNMRAMMPRAEAVDGDDSPLAAVTGKEVDMLHTGSSVATAGGAESGYSSSMEDVSSS
For the molecule B3, the binding entry in assay [3] is given as “binds”.

(Values after publication PMC6761100.)
